For 33 targets, log2 fold change results are on record in the supplement of paper PMC10849652.

Protein sequences, listed by entry. Tags and fused reporters are not part of them. Lines headed by an entry give the natural chain unless they say otherwise; changes in a name come on top.
UniProt P06396, whole entry, looked up: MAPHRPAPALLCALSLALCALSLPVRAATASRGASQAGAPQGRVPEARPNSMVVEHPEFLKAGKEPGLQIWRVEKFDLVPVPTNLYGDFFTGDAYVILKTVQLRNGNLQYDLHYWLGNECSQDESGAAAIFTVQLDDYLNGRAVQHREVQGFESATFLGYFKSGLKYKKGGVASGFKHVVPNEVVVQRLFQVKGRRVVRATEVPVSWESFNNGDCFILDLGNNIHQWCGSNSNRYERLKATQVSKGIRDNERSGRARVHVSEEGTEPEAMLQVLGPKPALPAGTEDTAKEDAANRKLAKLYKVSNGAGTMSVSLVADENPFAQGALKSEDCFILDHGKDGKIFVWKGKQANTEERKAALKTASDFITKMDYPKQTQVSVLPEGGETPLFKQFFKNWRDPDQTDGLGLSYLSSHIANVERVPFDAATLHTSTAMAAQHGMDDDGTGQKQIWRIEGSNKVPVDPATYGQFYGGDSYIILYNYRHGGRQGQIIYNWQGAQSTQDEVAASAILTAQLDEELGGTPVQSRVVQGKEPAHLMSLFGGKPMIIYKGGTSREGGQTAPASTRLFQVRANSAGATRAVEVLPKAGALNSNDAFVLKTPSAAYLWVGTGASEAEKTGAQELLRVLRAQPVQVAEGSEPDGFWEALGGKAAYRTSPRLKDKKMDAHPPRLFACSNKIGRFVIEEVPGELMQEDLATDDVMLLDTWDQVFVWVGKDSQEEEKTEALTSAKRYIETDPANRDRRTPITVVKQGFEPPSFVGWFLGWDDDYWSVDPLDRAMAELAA
UniProt P00390: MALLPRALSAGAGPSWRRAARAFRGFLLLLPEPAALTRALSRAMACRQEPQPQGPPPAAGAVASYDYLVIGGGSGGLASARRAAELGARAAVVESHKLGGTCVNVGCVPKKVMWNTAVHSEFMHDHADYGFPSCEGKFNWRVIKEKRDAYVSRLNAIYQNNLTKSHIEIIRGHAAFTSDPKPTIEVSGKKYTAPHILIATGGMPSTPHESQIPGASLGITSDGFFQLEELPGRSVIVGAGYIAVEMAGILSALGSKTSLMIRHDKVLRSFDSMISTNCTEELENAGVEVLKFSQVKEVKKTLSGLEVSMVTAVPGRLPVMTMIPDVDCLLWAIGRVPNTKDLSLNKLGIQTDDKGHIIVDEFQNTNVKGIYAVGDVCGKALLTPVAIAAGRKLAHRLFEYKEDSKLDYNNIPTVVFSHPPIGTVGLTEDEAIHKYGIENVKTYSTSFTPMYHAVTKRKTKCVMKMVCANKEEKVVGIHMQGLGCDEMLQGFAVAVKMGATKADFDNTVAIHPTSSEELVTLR
UniProt Q969F1: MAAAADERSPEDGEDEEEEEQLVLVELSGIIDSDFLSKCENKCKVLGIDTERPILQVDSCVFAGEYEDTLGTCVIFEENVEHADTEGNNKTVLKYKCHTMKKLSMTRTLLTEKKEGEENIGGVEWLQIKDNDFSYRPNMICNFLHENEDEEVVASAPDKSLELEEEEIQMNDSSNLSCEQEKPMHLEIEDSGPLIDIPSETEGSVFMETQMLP
UniProt Q9BQ67, whole entry, looked up: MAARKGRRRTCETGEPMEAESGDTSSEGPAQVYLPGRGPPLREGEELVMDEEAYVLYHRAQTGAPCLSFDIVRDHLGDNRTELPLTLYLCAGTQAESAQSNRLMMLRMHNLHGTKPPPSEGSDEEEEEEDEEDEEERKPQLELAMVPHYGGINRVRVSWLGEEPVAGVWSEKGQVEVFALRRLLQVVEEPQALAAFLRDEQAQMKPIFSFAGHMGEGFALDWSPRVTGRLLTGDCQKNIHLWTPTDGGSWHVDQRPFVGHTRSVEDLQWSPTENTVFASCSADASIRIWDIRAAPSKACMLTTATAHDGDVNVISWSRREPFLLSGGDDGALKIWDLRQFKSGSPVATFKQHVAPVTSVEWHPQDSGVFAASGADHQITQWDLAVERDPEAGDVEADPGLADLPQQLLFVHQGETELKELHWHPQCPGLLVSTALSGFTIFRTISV
UniProt P55084: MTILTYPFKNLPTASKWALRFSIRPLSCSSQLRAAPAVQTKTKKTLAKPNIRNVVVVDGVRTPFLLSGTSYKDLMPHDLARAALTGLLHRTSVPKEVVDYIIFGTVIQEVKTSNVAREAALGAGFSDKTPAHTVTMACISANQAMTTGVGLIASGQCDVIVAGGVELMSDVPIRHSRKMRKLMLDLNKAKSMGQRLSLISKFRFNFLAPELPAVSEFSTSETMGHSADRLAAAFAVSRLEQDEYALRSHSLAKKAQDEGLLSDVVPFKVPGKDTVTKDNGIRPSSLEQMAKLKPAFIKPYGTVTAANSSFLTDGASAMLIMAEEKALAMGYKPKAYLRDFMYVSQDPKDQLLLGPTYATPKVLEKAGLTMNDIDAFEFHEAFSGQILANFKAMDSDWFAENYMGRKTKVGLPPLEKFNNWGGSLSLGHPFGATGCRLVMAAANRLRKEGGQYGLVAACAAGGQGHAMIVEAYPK
UniProt Q9HAV7: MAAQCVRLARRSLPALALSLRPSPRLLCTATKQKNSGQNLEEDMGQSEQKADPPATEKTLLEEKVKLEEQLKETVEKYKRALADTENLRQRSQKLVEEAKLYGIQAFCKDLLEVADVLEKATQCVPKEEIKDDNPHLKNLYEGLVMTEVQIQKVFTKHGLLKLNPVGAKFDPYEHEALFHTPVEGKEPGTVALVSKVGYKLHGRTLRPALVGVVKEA
UniProt Q9BX10: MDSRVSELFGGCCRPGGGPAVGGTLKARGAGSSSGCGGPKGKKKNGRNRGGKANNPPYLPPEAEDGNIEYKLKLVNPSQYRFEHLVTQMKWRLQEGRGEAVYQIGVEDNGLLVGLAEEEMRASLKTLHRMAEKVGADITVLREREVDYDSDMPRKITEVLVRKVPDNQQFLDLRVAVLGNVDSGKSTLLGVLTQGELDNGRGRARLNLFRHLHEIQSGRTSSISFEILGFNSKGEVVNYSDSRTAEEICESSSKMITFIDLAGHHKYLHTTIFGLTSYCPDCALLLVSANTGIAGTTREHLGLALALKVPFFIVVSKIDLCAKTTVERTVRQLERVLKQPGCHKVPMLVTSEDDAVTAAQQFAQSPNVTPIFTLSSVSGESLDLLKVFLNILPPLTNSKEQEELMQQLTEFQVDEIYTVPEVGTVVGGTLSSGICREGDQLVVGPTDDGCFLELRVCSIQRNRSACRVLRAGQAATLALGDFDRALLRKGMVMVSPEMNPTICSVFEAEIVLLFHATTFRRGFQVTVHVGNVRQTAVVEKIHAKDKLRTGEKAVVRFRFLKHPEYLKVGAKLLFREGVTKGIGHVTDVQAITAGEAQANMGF
UniProt Q4ZG55: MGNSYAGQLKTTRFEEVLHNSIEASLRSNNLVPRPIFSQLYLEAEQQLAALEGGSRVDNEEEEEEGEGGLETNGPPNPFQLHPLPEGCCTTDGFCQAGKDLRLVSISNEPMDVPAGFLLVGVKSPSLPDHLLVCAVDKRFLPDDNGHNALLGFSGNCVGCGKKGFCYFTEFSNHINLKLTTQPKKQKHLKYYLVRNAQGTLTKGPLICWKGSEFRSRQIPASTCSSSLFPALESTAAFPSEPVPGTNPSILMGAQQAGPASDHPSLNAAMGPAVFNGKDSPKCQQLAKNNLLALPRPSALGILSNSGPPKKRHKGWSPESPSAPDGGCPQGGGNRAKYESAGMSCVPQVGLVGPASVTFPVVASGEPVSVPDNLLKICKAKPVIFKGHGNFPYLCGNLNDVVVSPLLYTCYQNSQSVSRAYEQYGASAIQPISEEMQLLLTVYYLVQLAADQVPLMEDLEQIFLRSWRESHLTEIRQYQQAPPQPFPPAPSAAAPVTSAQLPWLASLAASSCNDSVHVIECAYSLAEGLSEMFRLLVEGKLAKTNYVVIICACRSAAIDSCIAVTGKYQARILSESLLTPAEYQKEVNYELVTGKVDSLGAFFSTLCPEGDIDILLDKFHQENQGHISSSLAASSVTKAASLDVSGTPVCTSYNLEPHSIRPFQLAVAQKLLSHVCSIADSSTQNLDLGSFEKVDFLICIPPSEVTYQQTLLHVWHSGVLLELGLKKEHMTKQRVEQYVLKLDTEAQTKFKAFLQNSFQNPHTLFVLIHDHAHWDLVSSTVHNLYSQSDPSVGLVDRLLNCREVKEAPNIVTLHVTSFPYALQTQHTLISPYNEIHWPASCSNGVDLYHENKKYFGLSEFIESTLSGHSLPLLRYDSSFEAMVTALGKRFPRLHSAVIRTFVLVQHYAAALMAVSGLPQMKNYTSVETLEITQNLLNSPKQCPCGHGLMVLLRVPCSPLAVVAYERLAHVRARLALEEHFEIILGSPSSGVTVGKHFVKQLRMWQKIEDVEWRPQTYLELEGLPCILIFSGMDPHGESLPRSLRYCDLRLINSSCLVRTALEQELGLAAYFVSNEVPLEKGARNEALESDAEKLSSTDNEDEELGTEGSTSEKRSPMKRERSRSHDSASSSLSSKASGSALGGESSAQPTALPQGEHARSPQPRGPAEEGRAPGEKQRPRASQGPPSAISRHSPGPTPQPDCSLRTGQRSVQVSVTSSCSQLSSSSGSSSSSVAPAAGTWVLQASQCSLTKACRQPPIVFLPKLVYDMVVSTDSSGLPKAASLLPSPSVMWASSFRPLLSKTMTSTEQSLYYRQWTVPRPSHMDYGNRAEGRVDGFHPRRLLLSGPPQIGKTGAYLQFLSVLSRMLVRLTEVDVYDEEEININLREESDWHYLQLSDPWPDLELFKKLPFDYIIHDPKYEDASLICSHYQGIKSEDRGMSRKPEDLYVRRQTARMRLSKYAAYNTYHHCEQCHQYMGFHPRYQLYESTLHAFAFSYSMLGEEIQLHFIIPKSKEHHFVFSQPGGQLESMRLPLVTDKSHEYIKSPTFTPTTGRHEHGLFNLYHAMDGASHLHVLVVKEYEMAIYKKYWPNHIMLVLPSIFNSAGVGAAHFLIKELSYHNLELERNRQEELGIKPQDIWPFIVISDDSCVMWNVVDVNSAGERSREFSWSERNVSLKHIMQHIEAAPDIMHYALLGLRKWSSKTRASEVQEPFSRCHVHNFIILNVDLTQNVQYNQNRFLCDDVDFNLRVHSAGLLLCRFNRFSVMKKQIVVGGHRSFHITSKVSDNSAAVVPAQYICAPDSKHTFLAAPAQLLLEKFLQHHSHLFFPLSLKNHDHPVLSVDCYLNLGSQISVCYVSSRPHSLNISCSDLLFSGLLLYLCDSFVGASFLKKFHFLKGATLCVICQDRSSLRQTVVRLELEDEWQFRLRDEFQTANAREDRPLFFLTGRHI
UniProt P16403, whole entry, looked up: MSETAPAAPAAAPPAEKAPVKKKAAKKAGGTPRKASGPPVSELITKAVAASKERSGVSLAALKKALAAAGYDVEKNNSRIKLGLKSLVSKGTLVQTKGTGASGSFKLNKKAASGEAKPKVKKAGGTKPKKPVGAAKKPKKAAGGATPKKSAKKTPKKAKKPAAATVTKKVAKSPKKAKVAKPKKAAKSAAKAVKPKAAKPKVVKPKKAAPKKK
UniProt Q9BXW7: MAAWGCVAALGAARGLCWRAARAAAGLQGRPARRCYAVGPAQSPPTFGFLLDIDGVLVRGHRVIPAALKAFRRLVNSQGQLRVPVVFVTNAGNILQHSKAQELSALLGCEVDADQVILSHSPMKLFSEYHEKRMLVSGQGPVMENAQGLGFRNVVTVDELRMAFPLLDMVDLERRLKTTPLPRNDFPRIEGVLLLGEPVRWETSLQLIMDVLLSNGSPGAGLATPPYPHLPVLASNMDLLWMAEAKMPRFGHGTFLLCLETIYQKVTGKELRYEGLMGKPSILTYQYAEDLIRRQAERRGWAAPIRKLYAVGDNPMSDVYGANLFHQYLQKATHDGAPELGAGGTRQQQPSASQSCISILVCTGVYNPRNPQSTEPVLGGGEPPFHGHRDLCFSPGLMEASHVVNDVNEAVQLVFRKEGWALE
UniProt P09105: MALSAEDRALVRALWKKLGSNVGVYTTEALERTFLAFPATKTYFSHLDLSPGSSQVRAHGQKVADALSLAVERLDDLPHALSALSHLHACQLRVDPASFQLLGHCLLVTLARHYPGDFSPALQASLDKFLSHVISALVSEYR
UniProt Q9UJ83: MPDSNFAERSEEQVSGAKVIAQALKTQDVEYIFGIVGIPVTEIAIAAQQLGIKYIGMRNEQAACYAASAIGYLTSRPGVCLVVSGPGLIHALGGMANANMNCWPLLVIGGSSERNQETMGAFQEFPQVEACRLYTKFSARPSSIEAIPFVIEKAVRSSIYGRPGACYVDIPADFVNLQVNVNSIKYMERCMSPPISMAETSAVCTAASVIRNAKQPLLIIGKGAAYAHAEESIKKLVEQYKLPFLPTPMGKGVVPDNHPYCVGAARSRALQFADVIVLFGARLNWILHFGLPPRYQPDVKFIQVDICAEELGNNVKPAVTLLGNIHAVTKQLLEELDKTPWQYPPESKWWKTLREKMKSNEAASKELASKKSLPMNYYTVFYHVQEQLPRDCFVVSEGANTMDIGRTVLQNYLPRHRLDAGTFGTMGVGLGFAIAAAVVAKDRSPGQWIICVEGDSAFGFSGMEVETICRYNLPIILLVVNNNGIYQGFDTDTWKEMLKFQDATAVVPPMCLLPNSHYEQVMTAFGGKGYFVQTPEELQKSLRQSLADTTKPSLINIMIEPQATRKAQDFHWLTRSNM

This is one part of the list.

Compound in one experiment: C1=CC=C(C=C1)[C@H](COC2=CC3=C(C=C2)NC(=O)N3)NC(=O)C4=CC=CN(C4=O)CC5=CC(=C(C=C5)F)F
The experiment in a line: log2 fold change, soluble protein after heating vs DMSO (PISA); higher = thermal stabilisation; K562 lysate, 10 uM; active = over 0.2 and 3.5 SD of the protein, either way, in both replicates (recomputed). Put shortly:
(§1)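 To prepare the extract, K562 pellets were dounce-homogenised in PBS pH 7.4 with 1 mM MgCl2, giving crude material at 1 mg/mL protein. This was treated with 10 μM compound for 30 min, then heated in aliquots for 3 min over 48°C-58°C before pooling and addition of NP-40 to 0.5% at 4°C. Centrifugation at 21,000xg for 90 min left soluble protein in the supernatant, which TMTpro 16plex LC-MS/MS quantified with equalised channel sums. Results are log-two fold changes in thermal stability compared with solvent controls, from duplicates.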
On to HBS1L (UniProt Q9Y450), for which the log2 fold change was inactive: 0.037.
As to HBZ, A0A494C057, the log2 fold change was inactive: -0.016.
Turning to GSDME (UniProt O60443), the log2 fold change is inactive: 0.028.
For GTPBP10 (UniProt A4D1E9), the log2 fold change is inactive: 0.071.
GSN (UniProt P06396): the log2 fold change is inactive: 0.003.
Turning to GSR (UniProt P00390), the log2 fold change is inactive: -0.01.
On to GTF3C6 (UniProt Q969F1), for which the log2 fold change is inactive: 0.227.
Take HAGH (UniProt Q16775): the log2 fold change is inactive: -0.007.
Still for that read-out and setting: then HCFC1 (UniProt P51610), with inactive: 0.042.
On the same count and under the same terms, the result for GSTK1 (UniProt Q9Y2Q3) reads inactive: 0.046; that for HDAC3 (UniProt O15379), inactive: -0.035; that for GRWD1 (UniProt Q9BQ67), inactive: 0.056.
Still for that read-out and setting: then H3-3A (UniProt P84243), with inactive: 0.059; and HADHB (UniProt P55084), with inactive: 0.053.
Take GRPEL1 (UniProt Q9HAV7): the log2 fold change is inactive: -0.009.
In the case of GTPBP2 (UniProt Q9BX10), the log2 fold change is inactive: 0.019.
For H6PD (UniProt O95479), the log2 fold change is inactive: 0.092.
For the target GREB1 (UniProt Q4ZG55), the log2 fold change was inactive: 0.072.
The same measure, in the same setting: then H1-2 (UniProt P16403), with inactive: -0.004; and GYPA, A0A2R8Y7F9, with inactive: -0.088; and H3-2 (UniProt Q5TEC6), with inactive: 0.095.
As to HAUS2 (UniProt Q9NVX0), the log2 fold change was inactive: -0.186.
Turning to GRM5 (UniProt P41594), the log2 fold change is inactive: -0.131.
On to HDHD5 (UniProt Q9BXW7), for which the log2 fold change was inactive: 0.
The same measure, in the same setting: the result for HBQ1 (UniProt P09105) reads inactive: 0.073; that for HACL1 (UniProt Q9UJ83), inactive: 0.02.

Compound in a further experiment: CC1=C(SC2=C1C(=N[C@H](C3=NN=C(N32)C)CC(=O)N)C4=CC=C(C=C4)Cl)C
The experiment is described as above. Put shortly:
as §1
HBS1L (UniProt Q9Y450): the log2 fold change is inactive: -0.015.
The same measure, in the same setting: then HBZ, A0A494C057, with inactive: 0.067.
With GSDME (UniProt O60443), the log2 fold change was inactive: -0.024.
Take GTPBP10 (UniProt A4D1E9): the log2 fold change is inactive: -0.017.
With GSN (UniProt P06396), the log2 fold change is inactive: 0.014.
With GSR (UniProt P00390), the log2 fold change is inactive: -0.025.
Take GTF3C6 (UniProt Q969F1): the log2 fold change is inactive: -0.163.
With HAGH (UniProt Q16775), the log2 fold change is inactive: 0.001.
Take HCFC1 (UniProt P51610): the log2 fold change is inactive: -0.026.
GSTK1 (UniProt Q9Y2Q3): the log2 fold change is inactive: -0.03.
As to HDAC3 (UniProt O15379), the log2 fold change is inactive: 0.009.
As for GRWD1 (UniProt Q9BQ67), the log2 fold change was inactive: -0.007.
Same read-out and setting: the result for H3-3A (UniProt P84243) reads inactive: 0.016; that for HADHB (UniProt P55084), inactive: 0.021; that for GRPEL1 (UniProt Q9HAV7), inactive: 0.014.
On to GTPBP2 (UniProt Q9BX10), for which the log2 fold change is inactive: 0.021.
On to H6PD (UniProt O95479), for which the log2 fold change is inactive: 0.089.
On to GREB1 (UniProt Q4ZG55), for which the log2 fold change is inactive: 0.047.
On to H1-2 (UniProt P16403), for which the log2 fold change is inactive: -0.002.
The same measure, in the same setting: then GYPA, A0A2R8Y7F9, with inactive: -0.151; and H3-2 (UniProt Q5TEC6), with inactive: -0.134; and HAUS2 (UniProt Q9NVX0), with inactive: 0.148.
As for GRM5 (UniProt P41594), the log2 fold change is inactive: -0.022.
Turning to HDHD5 (UniProt Q9BXW7), the log2 fold change was inactive: 0.071.
Take HBQ1 (UniProt P09105): the log2 fold change is inactive: -0.03.
Consider HACL1 (UniProt Q9UJ83), for which the log2 fold change was inactive: 0.008.

Compound in the next experiment: CC1=C2C(=CC=C1)N=C(N(C2=O)C3=CC=CC=C3C)CN4C=NC5=C(N=CN=C54)N
The experiment is described as above. Summed up: as §1
In the case of HBS1L (UniProt Q9Y450), the log2 fold change was inactive: 0.018.
Regarding GSDMD (UniProt P57764), the log2 fold change is inactive: -0.156.
Regarding GRK5 (UniProt P34947), the log2 fold change was inactive: -0.063.
On to GSPT1 isoform 2 (UniProt P15170), for which the log2 fold change was inactive: -0.217.
Regarding HBZ, A0A494C057, the log2 fold change is inactive: 0.002.
On to GTPBP10 (UniProt A4D1E9), for which the log2 fold change is inactive: -0.007.
As for GSN (UniProt P06396), the log2 fold change is inactive: 0.017.
Consider GPT2 (UniProt Q8TD30), for which the log2 fold change was inactive: -0.039.
Turning to GSR (UniProt P00390), the log2 fold change was inactive: -0.026.
On to GTF3C6 (UniProt Q969F1), for which the log2 fold change was inactive: 0.04.
With HAGH (UniProt Q16775), the log2 fold change is inactive: 0.041.
With HCFC1 (UniProt P51610), the log2 fold change was inactive: 0.126.
On the same count and under the same terms, the result for GSTK1 (UniProt Q9Y2Q3) reads inactive: 0.028.
Take HDAC3 (UniProt O15379): the log2 fold change is inactive: 0.006.
Same read-out and setting: the result for GRWD1 (UniProt Q9BQ67) reads inactive: -0.004.
Consider H3-3A (UniProt P84243), for which the log2 fold change is inactive: 0.024.
On to HADHB (UniProt P55084), for which the log2 fold change was inactive: 0.105.
On the same count and under the same terms, the result for HBD (UniProt E9PEW8) reads inactive: -0.012; that for GRPEL1 (UniProt Q9HAV7), inactive: 0.015.
In the case of GTPBP2 (UniProt Q9BX10), the log2 fold change was inactive: 0.025.
With GREB1 (UniProt Q4ZG55), the log2 fold change is inactive: 0.154.
Turning to H1-2 (UniProt P16403), the log2 fold change was inactive: -0.028.
Consider GTPBP6 (UniProt O43824), for which the log2 fold change is inactive: 0.385.
HAUS2 (UniProt Q9NVX0): the log2 fold change was inactive: 0.077.
The same measure, in the same setting: the result for HDHD5 (UniProt Q9BXW7) reads inactive: 0.032.
Same read-out and setting: then HBQ1 (UniProt P09105), with inactive: -0.046; and GRAMD4 (UniProt Q6IC98), with inactive: 0.106; and HACL1 (UniProt Q9UJ83), with inactive: -0.025.
